Laboratory results as given in PubChem BioAssay AID651640 (Broad Institute, 2012).
Where “and” joins values, the source holds several entries; their conditions need not be identical. Equal values may be shown once. The whole screen tested about 350,000 compounds, of which about 6,000 (1.7%) were called active. Inconclusive results, whose numbers are uncertain, are shown with a selection of clear calls. No stated cut-off is given here; in the data, active means CPE inhibition above about 20% (passing the limit was not always enough); inconclusive means no clear call, values can overlap the other calls; tested in BHK-21 cells.

assay: protection of cells from dengue 2 killing – plate reader, single concentration, primary screen (AID 651640); conditions: DENV2-infected cells, cytopathic effect rescue, at 9.99 µM, hits give high values;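 further: 0% = median of neutral control wells and 100% = median of positive control wells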

Structure (SMILES)	CPE inhibition
COC(=O)C1=NNC(C(=O)c2ccco2)C1c1ccccc1 (configuration not stated)	inactive: -1.82%
O=C(COC(=O)C1CCC1)NC(=O)c1ccccc1	inactive: -4.09%
O=C(C[C@@H]1C=C[C@@H](NS(=O)(=O)c2ccc(F)cc2)[C@@H](CO)O1)N1CCN(c2ccccc2)CC1	inconclusive: 22.2%
C[C@@H]1CN([C@@H](C)CO)C(=O)c2cc(NC(=O)c3ccccc3)ccc2O[C@@H](C)CCCCO[C@@H]1CN(C)C(=O)c1ccncc1	inactive: 0.045%
CO[C@H]1CN(C)C(=O)c2ccc(NC(=O)c3ccccc3)cc2OC[C@@H](C)N(C(=O)CN(C)C)C[C@H]1C	inactive: 4.15%
CC(=O)Nc1ccc(CC(=O)Nc2ccc3c(c2)OC2(CCCC2)O3)cc1	inconclusive: 42.2%
CC(=O)NC1=NN(C(C)=O)C(c2ccc(F)cc2)S1 (configuration not stated)	inconclusive: 27.1%
O=C1CCC(=O)N(O)CCCCCNC(=O)CCC(=O)N(O)CCCCNC(=O)CCC(=O)N(O)CCCCCN1	active: 86.7%
C/C=C/c1ccc([C@@H]2[C@@H](CO)N(C(C)=O)[C@H]2CN(C)S(C)(=O)=O)cc1	inactive: 1.13%
Cc1ccc(S(=O)(=O)N2C[C@@H]3N[C@H](C2)C3c2ccc(/C=C/c3ccccc3)cc2)cc1 (some centres not stated)	inactive: -4.38% and inactive: -10%
OC(c1ccc(F)cc1)c1nc(-c2ccoc2)cs1 (configuration not stated)	inconclusive: 22.5%
CCCNC(=O)Nc1ccc2c(c1)OC[C@H](C)N(Cc1ccc(-c3ccccn3)cc1)C[C@@H](C)[C@H](OC)CN(C)C2=O	active: 25.5%
CCO[C@@H]1OC(C(=O)NCc2ccccc2)=C[C@H](c2coc3ccccc3c2=O)[C@H]1CCCO	active: 46.7%
COc1ccc(S(=O)(=O)Nc2ccc3c(c2)CC(=O)N([C@@H](C)CO)C[C@H](C)[C@H](CN(C)S(=O)(=O)c2ccc(OC)cc2)O3)cc1	inconclusive: 28.7%
O=C(c1ccccc1)N1CC[C@@H]2[C@@H](CO)Nc3ccc(C#Cc4cccnc4)cc3[C@@H]21	inconclusive: 48.1%
C[C@H](NC(=O)CCCOc1ccc(Cl)cc1Cl)c1nnc2ccccn12	active: 41.2%
COc1ccc(C2Nc3ccccc3C(=O)N2c2ccc(C)cc2)cc1Cn1nc(C)c([N+](=O)[O-])c1C (configuration not stated)	inactive: -2.54%
COc1ccc(-c2ccc3c(c2)O[C@@H](CN(C)C(C)=O)[C@@H](C)CN([C@H](C)CO)S3(=O)=O)cc1	inactive: -11.8%
CN(C)C1=NCCN1CCc1ccccc1	inconclusive: 46.6%
CNC[C@H]1Oc2cc(C#Cc3ccccn3)ccc2S(=O)(=O)N([C@@H](C)CO)C[C@@H]1C	inactive: 1.8%
C[C@H]1CN([C@@H](C)CO)C(=O)Cc2cc(N(C)C)ccc2O[C@H]1CN(C)Cc1ccc(C(F)(F)F)cc1	inconclusive: 21.7%
COc1cccc(CN2CCCCN3[C@@H](CO)[C@@H](c4ccc(C#Cc5cccnc5)cc4)[C@@H]3C2)c1	inconclusive: 28.1%
N=c1sccn1CC(=O)Nc1cc(Cl)ccc1[N+](=O)[O-]	inconclusive: 21.4%
CC1(N2CCCCC2)C(=O)c2ccccc2C1=O	inconclusive: 24.7%

Sorted by length of the SMILES (ascending): part of the list above.
Structure (SMILES)	CPE inhibition
CC1(N2CCCCC2)C(=O)c2ccccc2C1=O	inconclusive: 24.7%
CC(=O)NC1=NN(C(C)=O)C(c2ccc(F)cc2)S1 (configuration not stated)	inconclusive: 27.1%
O=C(C[C@@H]1C=C[C@@H](NS(=O)(=O)c2ccc(F)cc2)[C@@H](CO)O1)N1CCN(c2ccccc2)CC1	inconclusive: 22.2%

Remaining list, next part:

Structure (SMILES)	CPE inhibition
CN(C)C(=O)C[C@H]1C[C@H]2c3cc(NC(=O)NC4CCCC4)ccc3O[C@H]2[C@@H](CO)O1	inactive: 0.319%
Cc1ccc2sc(N(CCCN(C)C)C(=O)c3ccc(S(=O)(=O)N4CCc5ccccc5C4)cc3)nc2c1C	inactive: -7.19%
CO[C@@H]1CN(C)C(=O)c2ccc(NS(=O)(=O)c3cn(C)cn3)cc2OC[C@@H](C)N(CCC(F)(F)F)C[C@@H]1C	inconclusive: 21%
CC(C)CC#Cc1cnc2c(c1)C(=O)N([C@@H](C)CO)C[C@@H](C)[C@H](CN(C)C(=O)c1ccc3c(c1)OCO3)O2	inactive: 14.7%
Cc1ccnc(NC(=O)CSc2ccc3c(c2)OCCO3)c1	inconclusive: 54.7%
O=C(Nc1ccccc1)C1=C[C@H](c2ccc3c(c2)OCO3)C[C@H](OCc2ccc(CO)cc2)O1	inconclusive: 40.3%
O=C(NCCCN1CCOCC1)c1ccc(S(=O)(=O)Nc2ccccc2F)cc1	inconclusive: 30.7%
N#C[C@@H]1[C@H](c2ccccc2-c2ccccc2F)[C@H](CO)N1C(=O)C1CCC1	inactive: 0.028%
NNCCc1ccccc1	inconclusive: 44.3%
CC(C)c1nnc2c(N(C)S(=O)(=O)c3ccccc3)nc3ccccc3n12	inconclusive: 29.9%
CC(=O)N/N=C(\C)c1cccc(NC(=O)c2cccs2)c1	inconclusive: 39.3%
COCC(=O)N1[C@H](C(=O)N2CCCCC2)[C@@H](CO)[C@@H]2Cn3c(ccc(C4=CCCCC4)c3=O)[C@@H]21	inactive: -8.78%
O=C(CNS(=O)(=O)c1ccccc1)N1CCc2ccccc2C1	inconclusive: 20.1%
CO[C@@H]1CN(C)C(=O)c2ccc(NC(=O)c3ccccn3)cc2OC[C@@H](C)N(C(=O)C2CCC2)C[C@H]1C	inconclusive: 21.3%
CN(CC(=O)Nc1cccc(F)c1)C(=O)CN1C(=O)NC2(CCCC2)C1=O	inconclusive: 39.7%
C/C=C/c1ccc([C@@H]2[C@H](C#N)N(C(=O)NC3CCCC3)[C@H]2CO)cc1	inconclusive: 41.4%
CCCC(=O)Nc1nnc(-c2ccc3c(c2)OCCO3)o1	inconclusive: 38.7%
c1ccc2c(-c3cnc4cccnn34)cncc2c1	inconclusive: 42.2%
Cc1nc(SCc2nc3ccc(F)cc3[nH]2)c2oc3ccccc3c2n1	inconclusive: 78.8%
O=C(C[C@H]1CC[C@@H]2[C@H](COC[C@H](O)CN2CCC(F)(F)F)O1)NCC1CCCCC1	inactive: 1.35%
CN(C)CC(=O)Nc1ccc2c(c1)[C@H]1C[C@@H](CC(=O)NCc3ccccc3F)O[C@@H](CO)[C@H]1O2	inconclusive: 48.2%
CCOC(=O)C1CCN(C(=O)CN2C(=O)C(CC)Oc3ccccc32)CC1 (configuration not stated)	inconclusive: 23.8%
OC(COc1ccc(CN2CCCCO2)cc1)CN1CCCCC1 (configuration not stated)	inconclusive: 21.8%
